Test results: PubChem BioAssay AID590 (National Center for Advancing Translational Sciences (NCATS), 2007)
Out of some 59,000 compounds screened, about 6,500 (11%) were called active. The shares of active, inactive and inconclusive entries below differ from those in the screen. Rule as the data show it: active = max dye-equivalent concentration above about 10 nM; inconclusive = mostly about 1.1 nM to 9.6 nM; inactive = weaker than that.

Assay: qHTS Assay for Spectroscopic Profiling in A350 Spectral Region
Conditions: Compound autofluorescence, 340/450 nm, Alexa 350 dye-equivalents; active compounds read high

SMILES	max dye-equivalent concentration
O=C1OCCC1Sc1nc2ccccc2s1 (stereo not given)	inconclusive: 2.2 nM
CCCc1nc2oc3c(NCCN4CCOCC4)ncnc3c2c2c1CCCC2	inconclusive: 1.2 nM
Cc1nn(CC(=O)Nc2ccc(C(=O)N(C)C)cc2)c(=O)c2ccccc12	inconclusive: 3.6 nM
CCOc1cc(C(N)=O)cc(OCC)c1OCC	inconclusive: 3.3 nM
Cc1cc(CNC(=O)c2cc(Br)ccc2Cl)nn1C	inactive
CCCCn1c(SCN2C(=O)c3ccccc3C2=O)nc2cc(S(N)(=O)=O)ccc21	active: 33 nM
Cc1csc(NC(=O)CCn2c(=O)oc3ccccc32)n1	inactive
O=C(O)C1CC(=O)N(C2CCCCCC2)C1 (stereo not given)	inactive
COC(=O)Cc1c(C)c2c(OCc3nn[nH]n3)cc(C)cc2oc1=O	active: 97 nM
COC(=O)CSc1nc2c(c(-c3ccco3)c1C#N)CCCC2	inconclusive: 5.5 nM
Cc1cc(O)c(C(C)C)cc1N=C1CSC(=O)N1	inconclusive: 1.6 nM
Cc1cc(C)n(CC2CC(=O)N(c3ccc(Cl)c(Cl)c3)C2=O)n1 (stereo not given)	inconclusive: 3.7 nM
FC(F)(F)c1ccccc1-c1nccc(NCc2cccs2)n1	inactive
N[C@@H](CSC1(c2ccc(Cl)cc2)c2ccccc2-c2ccccc21)C(=O)O	inactive
CCc1nc2oc3cc(OC)ccc3c(=O)c2c(=O)n1Cc1ccco1	inconclusive: 3 nM
Nc1ccc2c(c1)-c1ccccc1S(=O)(=O)N2	inconclusive: 6 nM
CCC(c1nnnn1Cc1ccco1)N(Cc1ccccc1OC)Cc1cc2cc(C)ccc2[nH]c1=O (stereo not given)	inactive
COC(=O)c1ccc(C(=O)OC)c(NC(=O)c2ocnc2C)c1	inconclusive: 9.7 nM
O=C(CCN1CCOCC1)Nc1ccc2c(c1)N(C(=O)CN1CCOCC1)c1ccccc1CC2	inconclusive: 4.9 nM
CCOC(=O)N1CCN(C(=O)C2CC(c3cc(OC)ccc3OC)=NO2)CC1 (stereo not given)	inconclusive: 2.3 nM
CSc1ccc(C(C(C(=O)c2cccs2)N2CCOCC2)N2CCOCC2)cc1 (stereo not given)	inactive
COc1ccccc1-c1noc(-c2ccco2)n1	inconclusive: 1.2 nM
CC1CCCC(C)N1C(=O)CSc1nnc(C2CCCCC2)o1 (stereo not given)	inactive

SMILES	max dye-equivalent concentration
O=C(Cn1nc(-c2cccc(Cl)c2)ccc1=O)Nc1cccnc1	inactive
c1ccc2c3c([nH]c2c1)-c1[nH]ncc1CC3	inconclusive: 4 nM
CCN(c1ccc(OC)cc1)S(=O)(=O)c1ccc2c(c1)CCN2C(=O)CCC(=O)O	inconclusive: 3.5 nM
O=C(Nc1ccccc1)N1CCCC2(CCN(C(=O)c3cc(C(F)(F)F)cc(C(F)(F)F)c3)CC2)C1	inactive
Cc1cc(OCc2nc(N)nc(N)c2-c2ccc(Cl)c(Cl)c2)ccc1[N+](=O)[O-]	inactive
Cc1nnc(NS(=O)(=O)c2ccc(N)cc2)s1	inconclusive: 1.3 nM
Cc1cc(NC(=O)c2cnn3c(C(F)F)cc(C4CC4)nc23)no1	inconclusive: 6.6 nM
C=CCNc1oc(-c2ccc(OC)cc2)nc1C#N	inconclusive: 7.2 nM
C=CCNC(=O)C1CCCN(S(C)(=O)=O)C1 (stereo not given)	inconclusive: 2.3 nM
Cc1ccc(CS(=O)(=O)CCC(=O)NCCN2CCCC2)cc1	inconclusive: 3.1 nM
COc1ccc(-c2nn3cnnc3s2)cc1OC	inactive
COC(=O)C1=C(C)NC(C)=C(C(=O)OC)C1C(=O)OC1CCCCC1=O (stereo not given)	active: 150 nM
O=C(CC(SCc1ccco1)c1ccc(O)cc1)c1cccs1 (stereo not given)	inconclusive: 1.4 nM
O=S(=O)(O)c1ccc(O)c2ncccc12.O=S(=O)(O)c1ccc(O)c2ncccc12.[Zn]	inconclusive: 1.4 nM
CCN1C(=O)c2cccc3c(S(=O)(=O)Nc4nc(C)cs4)ccc1c23	inconclusive: 1.3 nM
CCN(Cc1cc2cc(C)ccc2[nH]c1=O)S(=O)(=O)c1ccccc1	inconclusive: 3.3 nM
Cc1nc2ccccc2c(=O)n1C1CCCCCC1	inactive
Cn1c(=O)c2ncn(CC(=O)NCCOc3ccc(C(C)(C)C)cc3)c2n(C)c1=O	inconclusive: 5.3 nM
CC1CCN(S(=O)(=O)N2CCC(C(=O)NCc3cccs3)CC2)CC1	active: 17 nM
CCN1CCN(c2cc3c(cc2F)c(=O)c(C(=O)O)cn3C2CC2)CC1	inconclusive: 4.7 nM
O=C(NC1CCCc2ccccc21)C1CCN(c2c3c(nc4ncnn24)CCC3)CC1 (stereo not given)	inconclusive: 1.1 nM
N#Cc1nc(Cc2cccc3ccccc23)oc1NCCCn1ccnc1	inactive
O=C1N(CN2CCC3(CC2)OCCO3)c2ccccc2C12OCCCO2	inconclusive: 1.1 nM

Four successive compounds out of the list so far, quoted:
SMILES	max dye-equivalent concentration
Cc1cc(OCc2nc(N)nc(N)c2-c2ccc(Cl)c(Cl)c2)ccc1[N+](=O)[O-]	inactive
Cc1nnc(NS(=O)(=O)c2ccc(N)cc2)s1	inconclusive: 1.3 nM
Cc1cc(NC(=O)c2cnn3c(C(F)F)cc(C4CC4)nc23)no1	inconclusive: 6.6 nM
C=CCNc1oc(-c2ccc(OC)cc2)nc1C#N	inconclusive: 7.2 nM

Part of the list above in a different format.
O=C(Nc1ccccc1)N1CCCC2(CCN(C(=O)c3cc(C(F)(F)F)cc(C(F)(F)F)c3)CC2)C1
  max dye-equivalent concentration: inactive
Cc1nnc(NS(=O)(=O)c2ccc(N)cc2)s1
  max dye-equivalent concentration: inconclusive: 1.3 nM
C=CCNC(=O)C1CCCN(S(C)(=O)=O)C1 (stereo not given)
  max dye-equivalent concentration: inconclusive: 2.3 nM

More structures follow.

SMILES	max dye-equivalent concentration
CN(C)CC[C@@H](C(=O)C(C)(C)C)c1ccccn1	inactive
CCn1c(=N)n(CCOc2ccc(OC)cc2)c2ccccc21	inactive
Cc1ccc(CNC(=O)C(OC(=O)c2ccco2)C(C)C)cc1 (stereo not given)	inactive
CCc1ccc2oc(-c3ccc(N)cc3)nc2c1	active: 140 nM
CCN1C(=O)C2C(c3ccc(O)c(OC)c3)NC(C)(C(=O)OC)C2C1=O (stereo not given)	active: 21 nM
CCn1c(=O)n(CC(=O)N(C)Cc2ccccc2)c(=O)c2ccccc21	inactive
CC1(C)CC(=O)c2sc(NC(=O)CN3CCOCC3)nc2C1	active: 22 nM
COc1ccc2c(c1OC)C(=O)N1c3ccccc3C(=O)N(c3ccccc3)C21 (stereo not given)	inactive
Cc1ccc2cccc(SCC(=O)NCc3ccco3)c2n1	active: 28 nM
COc1cc2c(C#N)c(N3CCOCC3)nc(N)c2c(N)n1	active: 490 nM
COc1ccc(-c2coc3cc(O)ccc3c2=O)cc1	active: 110 nM
Cc1cccc2cc3c(N)c(C(=O)N4CCOCC4)sc3nc12	inconclusive: 3.5 nM
CN(C(=O)C1CCOC1)c1nnc(-c2ccncc2)s1 (stereo not given)	inconclusive: 2.9 nM
COC(=O)c1[nH]c2cccc(OC)c2c1NC(=O)CN1CC2(C)CC1CC(C)(C)C2 (stereo not given)	inconclusive: 4.5 nM
CC[C@@]1([N+](=O)[O-])C[C@H]2C=C[C@@H]1C2	inactive
O=C(O)c1ccc(NS(=O)(=O)/C=C/c2ccccc2)cc1O	inconclusive: 1.8 nM
Cc1cc(C)c(S(=O)(=O)NCc2cn3c(C)csc3n2)cc1C	inactive
Cc1csc(NC(=O)c2ccoc2C)n1	inconclusive: 1.2 nM
CCC(=O)[C@@]1(C)[C@H](C)C[C@@H]2[C@@H]3CCC4=CC(=O)C=C[C@@]4(C)[C@H]3[C@H](O)C[C@]21C	active: 15 nM
COc1cccc(N2C(=O)C3CC=C(Cl)CC3C2=O)c1 (stereo not given)	inconclusive: 1.1 nM
Cc1cccc2cc(CN(Cc3cccs3)C3(c4nnnn4C4CCCC4)CCCC3)c(=O)[nH]c12	inactive
CC12CN3CC(C)(CN(C1)C3c1ccc(Br)cc1)C2 (stereo not given)	inconclusive: 3.3 nM
COc1cc(C2=NOC(C(=O)N3CCOCC3)C2)cc(OC)c1OC (stereo not given)	inconclusive: 1.4 nM

SMILES	max dye-equivalent concentration
Cn1c(/C(C#N)=C(\O)c2ccc(S(=O)(=O)N3CCCCC3)cc2)nc2ccccc21	active: 200 nM
CCCn1c(/N=C/c2cc(OC)ccc2O)nc2ccccc21	inconclusive: 1.1 nM
CC(=O)Nc1ccc(S(=O)(=O)N2CCN(c3cc(C)nc4ccccc34)CC2)cc1	inactive
CC(C)C(=O)Nc1cccc(NC(=O)CCN2C(=O)c3ccccc3S2(=O)=O)c1	inconclusive: 4.1 nM
CCCCNC(=O)CC1N=C2c3ccccc3N=C(SCC(=O)Nc3ccc(OC)cc3)N2C1=O (stereo not given)	inconclusive: 3.9 nM
Cc1ccc2c(c1)c1ncnc(N3CCOCC3)c1n2C	active: 3400 nM
CCOC(=O)C1C(=O)NC(N2CCN(c3ccccc3)CC2)=NC1c1ccco1 (stereo not given)	inactive
COCCn1c(=O)c(-c2cccs2)nc2cnc(N3CCNCC3)nc21	active: 140 nM
Cc1ccc(C)c2[nH]c(=O)c(CN(Cc3ccc4c(c3)OCO4)Cc3nnnn3Cc3ccco3)cc12	inconclusive: 2.6 nM
COc1ccc(OC)c(S(=O)(=O)N2CCC(C(=O)NC(C)c3ccccc3)CC2)c1 (stereo not given)	inactive
O=C(NC1CCCCC1)NC1CCN(S(=O)(=O)Cc2ccccc2)CC1	inconclusive: 5.3 nM
COc1ccc(OC)c(-c2c[n+](=O)c3c(n2[O-])CCCC3)c1	inconclusive: 1.2 nM
Cc1ccc(C)c(CSc2nnc([C@@H](N)C(C)C)o2)c1	inconclusive: 1.4 nM
COCCNC(=O)C(C#N)c1nc2ccccc2nc1N1CCN(Cc2ccc3c(c2)OCO3)CC1 (stereo not given)	inconclusive: 2.9 nM
O=C(Nc1cccc(C(=O)N2CCCCCC2)c1)c1ccco1	inconclusive: 2.6 nM
O=C(c1ccco1)N1CCN(CC(O)COc2ccc3oc4ccccc4c3c2)CC1 (stereo not given)	inconclusive: 1.3 nM
CC[C@H]1CC[C@H]2[C@@H]3CC=C4C[C@H](OC(C)=O)[C@@H](N)C[C@@]4(C)[C@H]3CC[C@@]12C	inconclusive: 4.7 nM
O=C(OCC(=O)N1CCN(C(=O)c2ccco2)CC1)c1cc(-c2ccc(F)cc2)nc2ccccc12	active: 99 nM
N#Cc1c(NC(=O)C(F)(F)F)sc2c3c(=O)c4ccccc4c(=O)c=3oc3ccccc3c12	inconclusive: 1.3 nM
CC(C)=CCC(C)(C)CNC(=O)NC1CCCCC1	inconclusive: 3 nM
COc1ccccc1N(C)S(=O)(=O)c1ccc(C(=O)NC2=NCCS2)cc1	inconclusive: 1.3 nM
